Some of the results follow.

The target of this assay is T1, OsSMF1 (Oryza sativa, UniProt Q6ZLB0 1-436).
T1 sequence: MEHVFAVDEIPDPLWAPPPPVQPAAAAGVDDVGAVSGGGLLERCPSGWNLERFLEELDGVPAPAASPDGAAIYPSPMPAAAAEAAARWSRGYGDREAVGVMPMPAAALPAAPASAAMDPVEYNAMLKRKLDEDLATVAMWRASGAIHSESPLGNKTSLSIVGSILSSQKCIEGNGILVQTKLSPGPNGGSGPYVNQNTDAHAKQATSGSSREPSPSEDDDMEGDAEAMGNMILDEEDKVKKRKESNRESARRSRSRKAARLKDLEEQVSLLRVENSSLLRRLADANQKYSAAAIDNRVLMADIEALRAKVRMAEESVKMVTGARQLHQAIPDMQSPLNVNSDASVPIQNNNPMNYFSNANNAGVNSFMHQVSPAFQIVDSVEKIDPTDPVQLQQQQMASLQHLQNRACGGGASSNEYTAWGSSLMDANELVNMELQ
The experiment in a line: protein-binding microarray (RPBM); PBS, 2% BSA, 51.3 ng/ul salmon testes DNA, 50 uM zinc acetate, 200 nM TF, 25 C, 1 h; high values mean tight binding. The settings on record: protein: recombinant; tags: N-terminal polyhistidine and DsRed monomer fusion (pET32a); chain copies: 2; label: CyDye5-dUTP incorporated in the synthesized complementary strand; 3' TTTTT single-stranded linker to array surface; dsDNA, one strand shown. The essentials: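 Transcription factors were made in E. coli BL21-CodonPlus as N-terminal fusions to a polyhistidine tag and DsRed, then purified on Ni–NTA. After primer extension with Cy5-dUTP and blocking with 2% BSA, a custom Agilent array was exposed for 1 h at 25 °C to 200 nM protein in PBS, 2% BSA, salmon testes DNA and 50 µM zinc acetate. Washed arrays were scanned on an Axon 4000B, and the binding signal is per-feature fluorescence intensity in arbitrary units.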
“CCTATTTGATGTGGCTTTTCGCCCTTCCTTTTAACCGTGTCGGAGTCACCTAGTGCAG”: the binding signal was 3430 fluorescence intensity (a.u.). The value for “CAGTAAAAGAAATGTCTTAACTGTGTCATCATTTGATTAACGGAGTCACCTAGTGCAG” was 4240 fluorescence intensity (a.u.). “TGTAGATCTGTCGATCTCTGTCATCAACGGCAACTCCGGTCGGAGTCACCTAGTGCAG”: the binding signal was 3360 fluorescence intensity (a.u.). The value for “CTGTCTTTGCTGGCTGCTGCCACGGCTTCCATTCCTCCCGCGGAGTCACCTAGTGCAG” was 4280 fluorescence intensity (a.u.); that for “GTACCCAATCGCGTCCACGTACTATTCCACTCTCTAACCTCGGAGTCACCTAGTGCAG” was 7270 fluorescence intensity (a.u.); that for “GTAGATACACGTCGCGCGTTCGAGCCTAAGGTACCTGCTCCGGAGTCACCTAGTGCAG” was 3800 fluorescence intensity (a.u.). For “GATTCCTTCCTAGCTGTCACGTCATAGACTTCCCGAAGACCGGAGTCACCTAGTGCAG”, the binding signal was 7890 fluorescence intensity (a.u.). The value for “GCCGATTGTCCCTCACGCCAAACCATCACGTGTGCGCTTCCGGAGTCACCTAGTGCAG” was 4000 fluorescence intensity (a.u.); that for “CTCCACTAATCTAAAATTTGTTTAATGGATCATTGCATCACGGAGTCACCTAGTGCAG” was 9140 fluorescence intensity (a.u.).

With “GTATGGTGGTGTCTGCACGTAAGCATATACGTAGTACTACCGGAGTCACCTAGTGCAG”, the binding signal is 6120 fluorescence intensity (a.u.). The value for “AACTAGTACGGGTCAACGGAATGTGACGCTCATATCGATCCGGAGTCACCTAGTGCAG” was 3300 fluorescence intensity (a.u.); that for “ACCAATCGCATGACGATATTCCCGCTCCCACAATCGCGTTCGGAGTCACCTAGTGCAG” was 3550 fluorescence intensity (a.u.); that for “GTAGAAAGCAGGGATAAAGTATTGGTGGAGATGTCACGCCCGGAGTCACCTAGTGCAG” was 3560 fluorescence intensity (a.u.). To “GTGCTTGTCCTGCCTGCTTCGCTGACCTGTATAGCTTGACCGGAGTCACCTAGTGCAG” belongs 6180 fluorescence intensity (a.u.); to “GTATCAATGCATAACAGTGTGCCACGTACAGCCAGTAGCACGGAGTCACCTAGTGCAG”, 5490 fluorescence intensity (a.u.). Regarding “CAGGGGTTTCCAATCTTGGGGTAACAACAACACATTGCGTCGGAGTCACCTAGTGCAG”, the binding signal is 3440 fluorescence intensity (a.u.). For “GGCCTCTGATTGCGTTGCGCCTTTCGTCGTGCCACGGCGTCGGAGTCACCTAGTGCAG”, the binding signal is 9390 fluorescence intensity (a.u.). In the case of “ACCGTGTTGATAGAAATTTGTCATAGTCTCACATATTTTCCGGAGTCACCTAGTGCAG”, the binding signal was 3340 fluorescence intensity (a.u.).

In the case of “GGCAGCGACCACGACACGTCGTTGTTCCCTCTGCTCCCGCCGGAGTCACCTAGTGCAG”, the binding signal is 6470 fluorescence intensity (a.u.). As for “TTTTCCTTTTCTCTTGGATGACGACAGATGCCGGTTTGTGCGGAGTCACCTAGTGCAG”, the binding signal was 4220 fluorescence intensity (a.u.). As for “TTCATATAGATTTTATTGAATCTTAACGCACATATATATACGGAGTCACCTAGTGCAG”, the binding signal was 22200 fluorescence intensity (a.u.). To “TTGTTTCCTACGTACGACGATGACGAGTCCACTCGGAATACGGAGTCACCTAGTGCAG” belongs 4150 fluorescence intensity (a.u.); to “CGTGATACGCTTAATATTACTAGCGTCAGCCTTGCTGTCACGGAGTCACCTAGTGCAG”, 5340 fluorescence intensity (a.u.).

These data come from paper PMC7819943, “Rice protein-binding microarrays: a tool to detect cis-acting elements near promoter regions in rice”.
